Where “and” joins values, the source holds several entries; their conditions need not be identical. Identical values can stand only once. HELM strings list residues between dots; [ac] is acetyl, [am] amide, other brackets name non-standard units.
Experiment: general procedure: Boc solid-phase peptide synthesis; PAM resin (t-Boc-Ser(Bzl)-OCH2 PAM); DCC symmetrical anhydrides; DCC/HOBT active esters
Details: whole synthesis; for final HPLC purity: analytical HPLC, Vydac C-4, UV absorbance at 215 nm; for final HPLC purity / crude yield: scale of the general procedure 0.5 mmol
[1] = trifluoroacetate salts after HPLC, acetate salts after anion exchange

Row | Substance | final HPLC purity [1] | crude mass (hydrofluoride) [mg] | crude yield [1] [%] | also measured
1 | PEPTIDE1{G.I.G.K.F.L.F.S.A.K.K.F.G.K.A.F.V.G.E.I.M.N.S}$$$$V2.0 | >98% |  |  | 
2 | PEPTIDE1{G.I.G.K.F.L.H.A.A.K.K.F.G.K.A.F.V.G.E.I.M.N.S}$$$$V2.0 | >95% |  |  | 
3 | PEPTIDE1{G.I.G.K.F.L.H.E.A.K.K.F.G.K.A.F.V.G.E.I.M.N.S}$$$$V2.0 | >90% |  |  | 
4 | PEPTIDE1{G.I.G.K.F.L.H.S.A.G.K.F.A.K.A.F.V.A.E.I.M.K.S}$$$$V2.0 |  | 259 | 72 | final HPLC purity (trifluoroacetate salts after HPLC, acetate salts after anion exchange, run 1): 65% and >98%
5 | PEPTIDE1{G.I.G.K.F.L.H.S.A.G.K.F.G.K.A.F.V.A.E.I.M.K.S}$$$$V2.0 | about 73% | 285 | 66 | 
6 | PEPTIDE1{G.I.G.K.F.L.H.S.A.H.H.F.G.K.A.F.V.G.E.I.M.N.S}$$$$V2.0 | greater than 95% pure |  | 71 | crude mass [1]: 320 mg
7 | PEPTIDE1{G.I.G.K.F.L.H.S.A.H.K.F.G.K.A.F.V.G.E.I.M.N.S}$$$$V2.0 | greater than 98% pure |  | 82 | crude mass (scale 0.5 mmol, trifluoroacetate salts after HPLC, acetate salts after anion exchange): 432 mg
8 | PEPTIDE1{G.I.G.K.F.L.H.S.A.K.H.F.G.K.A.F.V.G.E.I.M.N.S}$$$$V2.0 | greater than 95% pure |  |  | 
9 | PEPTIDE1{G.I.G.K.F.L.H.S.A.K.K.F.G.K.A.F.V.G.E.I.M.N}$$$$V2.0 | >92% |  |  | 
10 | PEPTIDE1{G.I.G.K.F.L.H.S.A.K.K.F.G.K.A.F.V.G.E.I.M}$$$$V2.0 | >94% |  |  | 
11 | PEPTIDE1{G.I.G.K.F.L.H.T.A.K.K.F.G.K.A.F.V.G.E.I.M.N.S}$$$$V2.0 | >95% |  |  | 
12 | PEPTIDE1{G.I.G.K.F.L.K.S.A.K.K.F.G.K.A.F.V.G.E.I.M.N.S}$$$$V2.0 | >96% |  |  | 
13 | PEPTIDE1{G.K.F.L.H.S.A.G.K.F.G.K.A.F.V.G.E.I.M.K.S}$$$$V2.0 |  | 430 | 92 | 
14 | PEPTIDE1{I.G.K.F.L.H.S.A.G.K.F.G.K.A.F.V.G.E.I.M.K.S}$$$$V2.0 | 48% | 350 | 84 | 
15 | PEPTIDE1{M.G.I.G.K.F.L.H.S.A.G.K.F.A.K.A.F.V.A.E.I.M.K.S}$$$$V2.0 | 67% | 104 | 37 | 
16 | PEPTIDE1{M.G.I.G.K.F.L.H.S.A.G.K.F.G.K.A.F.V.G.E.I.M.K.S}$$$$V2.0 | 66% | 250 | 69 | 
17 | PEPTIDE1{M.G.I.G.K.F.L.H.S.A.K.K.F.A.K.A.F.V.A.E.I.M.N.S}$$$$V2.0 | greater than 97% pure |  |  | 
18 | PEPTIDE1{M.G.I.G.K.F.L.H.S.A.K.K.F.G.K.A.F.V.G.E.I.M.N.S}$$$$V2.0 |  |  |  | final HPLC purity (hexatrifluoroacetate): greater than 95% pure
19 | PEPTIDE1{M.G.K.F.L.H.S.A.K.K.F.G.K.A.F.V.G.E.I.M.N.S}$$$$V2.0 | greater than 97% pure |  | 95 | crude mass [1]: 824 mg
20 | [Arg^7 ]Mag 2-OH | >96% |  |  | 
